{
  "source": "patent US20250017950A1",
  "about": "“COMPOUNDS FOR TREATING MITOCHONDRIAL DNA DISORDERS” (UCL BUSINESS LTD, priority 2021, published 2025)",
  "key": {"A549 and Myo.RD": {"system": "A549 and Myo.RD", "assay": "Extracellular acidification rate (ECAR), XF flux-analyzer", "format": "cell-based, human", "settings": "compounds injected directly on the plate"}, "[1]": {"system": "cells carrying high levels of mutant mtDNA", "assay": "Oxamate: mtDNA replication in cells with high mutant mtDNA (FIG. 17a)", "format": "cell-based"}, "heteroplasmic cells": {"system": "heteroplasmic cells", "assay": "Oxamate: selection of wild-type mtDNA (FIG. 17b)", "format": "cell-based", "settings": "n=3"}, "OXPHOS subunits": {"system": "OXPHOS subunits", "assay": "Oxamate: OXPHOS subunit levels (FIG. 17c)", "format": "cell-based", "settings": "after four weeks of treatment"}},
  "note": "For some of these results: At least one structure is not confirmed: it was looked up by name or label, or the drawing left a doubt. Some of these results come from one statement about several compounds together.",
  "data": [
    {"smiles": "O=C[C@H](O)[C@@H](O)[C@H](O)[C@H](S)CO", "note": "[5TG, 5-thioglucose]", "values": [
      {"measurement": "inhibition of glycolysis based on ECAR", "setting": "A549 and Myo.RD", "result": "60-80%"}
    ]},
    {"smiles": "NC(=O)C(=O)O", "note": "[oxamate]", "values": [
      {"measurement": "mtDNA replication", "setting": "[1]", "result": "inhibit mtDNA replication in cells carrying high levels of mutant mtDNA"},
      {"measurement": "selection of wild-type mtDNA", "setting": "heteroplasmic cells", "result": "selects wild-type mtDNA in heteroplasmic cells"},
      {"measurement": "levels of OXPHOS subunits", "setting": "OXPHOS subunits", "result": "increases the levels of OXPHOS subunits"}
    ]}
  ]
}
